Article PMC7862700
The entries are a selection whose mix differs from that of the whole data set. At the low end of the ranking the order means little.

Sequences of proteins named here, by UniProt entry; tags and fusion partners are left off. A change or cut given only in a name is not applied to a line headed by its entry.
UniProt O43186: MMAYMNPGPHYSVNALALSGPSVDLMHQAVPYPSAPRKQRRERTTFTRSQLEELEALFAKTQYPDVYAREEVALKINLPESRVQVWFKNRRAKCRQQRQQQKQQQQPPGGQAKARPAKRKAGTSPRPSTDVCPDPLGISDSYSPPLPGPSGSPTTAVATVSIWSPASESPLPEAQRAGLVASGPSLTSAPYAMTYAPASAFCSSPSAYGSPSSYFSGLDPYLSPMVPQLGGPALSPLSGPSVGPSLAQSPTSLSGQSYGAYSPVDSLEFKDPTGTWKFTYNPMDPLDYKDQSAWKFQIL

Columns and labels:
Experiment in all cases: DAPPL (digital affinity profiling via proximity ligation, sequencing)
Settings in all cases: 10 mM Tris-HCl pH 7.5, 50 mM NaCl, 1 mM DTT, 4% glycerol, room temperature, 30 min; GST-TFs on glutathione beads, 16-mer random dsDNA library, 0.1% …; high values mean tight binding; double strand, one strand shown; scale: fold enrichment (6-mer frequency, TF over GST control)
FEV = target: T1, FEV (UniProt Q99581)
T1 sequence: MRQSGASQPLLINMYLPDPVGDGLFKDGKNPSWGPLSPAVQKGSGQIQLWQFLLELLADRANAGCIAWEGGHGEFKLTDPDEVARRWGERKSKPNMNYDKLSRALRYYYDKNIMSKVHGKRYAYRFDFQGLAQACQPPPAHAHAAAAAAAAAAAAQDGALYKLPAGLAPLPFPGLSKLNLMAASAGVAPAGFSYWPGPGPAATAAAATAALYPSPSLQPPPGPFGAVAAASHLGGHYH

CRX = CRX (UniProt O43186)
ELF5 = target: T2, ELF5 (UniProt Q9UKW6-2)
T2 sequence: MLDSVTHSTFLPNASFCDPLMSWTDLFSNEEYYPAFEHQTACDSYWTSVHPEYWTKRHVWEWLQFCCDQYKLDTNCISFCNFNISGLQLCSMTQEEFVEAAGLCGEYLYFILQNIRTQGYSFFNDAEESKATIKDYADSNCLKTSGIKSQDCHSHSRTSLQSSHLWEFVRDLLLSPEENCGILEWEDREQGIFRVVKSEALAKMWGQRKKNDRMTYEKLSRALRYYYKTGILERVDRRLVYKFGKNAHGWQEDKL

| Sequence | binding signal (FEV) | binding signal (CRX) | binding signal (ELF5) |
| --- | --- | --- | --- |
| GCAGTT | 0.857 | 0.682 | 0.795 |
| CCGTGC | 0.578 | 0.448 | 0.607 |
| CAGTTG | 0.463 | 0.384 | 0.426 |
| GGCGTA | 0.615 | 0.592 | 0.635 |
| AGTTGG | 0.481 | 0.389 | 0.494 |
| GTTGGA | 0.485 | 0.386 | 0.495 |
| TGTCGG | 0.334 | 0.271 | 0.36 |
| CATCGG | 0.695 | 0.614 | 0.61 |
| CCAGGC | 0.401 | 0.372 | 0.402 |
| GGAGAT | 0.29 | 0.394 | 0.288 |
| GACAAT | 0.919 | 0.839 | 0.954 |
| GACGCC | 0.889 | 0.591 | 0.812 |
| ATCGAG | 0.826 | 0.968 | 0.779 |
| GCACAG | 0.741 | 0.552 | 0.731 |
| GTAGAG | 0.536 | 0.492 | 0.557 |
| GACAGA | 0.659 | 0.572 | 0.616 |
| AAGAGA | 0.844 | 0.943 | 0.823 |
| AGAACG | 0.451 | 0.464 | 0.422 |
| GTTGTG | 0.832 | 0.665 | 0.847 |
| CAGAGA | 0.63 | 0.683 | 0.562 |
| TAGTGA | 0.565 | 0.693 | 0.552 |
| TAGGAC | 0.851 | 0.907 | 0.833 |
| CGTGGG | 0.357 | 0.312 | 0.332 |
| CGGCGA | 0.792 | 0.602 | 0.737 |

| Sequence | binding signal (FEV) | binding signal (CRX) | binding signal (ELF5) |
| --- | --- | --- | --- |
| AGCAAG | 0.88 | 0.803 | 0.861 |
| GGCTGA | 0.758 | 0.754 | 0.678 |
| CGGGGT | 0.551 | 0.488 | 0.602 |
| GGGAGC | 0.401 | 0.331 | 0.363 |
| TGTCGT | 0.746 | 0.642 | 0.925 |
| GGCAAA | 0.919 | 0.806 | 0.903 |
| GGCGAA | 0.712 | 0.565 | 0.678 |
| AGGCAT | 0.793 | 0.83 | 0.798 |
| GTCAGG | 0.498 | 0.388 | 0.551 |
| TCAGCG | 0.864 | 0.805 | 0.678 |
| GTCGAG | 0.414 | 0.366 | 0.438 |
| AAAGTG | 0.857 | 0.881 | 0.913 |
| CGCATA | 0.732 | 0.693 | 0.732 |
| AGGAGA | 0.201 | 0.219 | 0.211 |
| GAGTCG | 0.22 | 0.184 | 0.205 |
| GTGCGG | 0.662 | 0.488 | 0.703 |
| GAGTCC | 0.38 | 0.312 | 0.388 |
| GTGTGA | 0.516 | 0.463 | 0.547 |
| CGCGGT | 0.885 | 0.702 | 0.863 |
| GGAGTC | 0.211 | 0.171 | 0.204 |
| GACTGT | 0.424 | 0.351 | 0.413 |
| GTGAGA | 0.315 | 0.264 | 0.296 |
| GAACAG | 0.864 | 0.745 | 0.986 |
| TCGGCC | 0.751 | 0.63 | 0.668 |

Single records, as listed above.
ATCGAG as listed: binding signal (FEV) = 0.826; binding signal (CRX) = 0.968; binding signal (ELF5) = 0.779
GGAGTC as listed: binding signal (FEV) = 0.211; binding signal (CRX) = 0.171; binding signal (ELF5) = 0.204
GGAGAT as listed: binding signal (FEV) = 0.29; binding signal (CRX) = 0.394; binding signal (ELF5) = 0.288
GAGTCC as listed: binding signal (FEV) = 0.38; binding signal (CRX) = 0.312; binding signal (ELF5) = 0.388

Carrying on:

| Sequence | binding signal (FEV) | binding signal (CRX) | binding signal (ELF5) |
| --- | --- | --- | --- |
| GTCAGT | 0.611 | 0.45 | 0.554 |
| ACGGGT | 0.932 | 0.777 | 0.868 |
| GGTGAA | 0.792 | 0.583 | 0.73 |
| GAGATG | 0.677 | 0.627 | 0.663 |
| GGAATC | 0.721 | 0.755 | 0.682 |
| GGGTCT | 0.907 | 0.83 | 0.884 |
| GTACGT | 0.834 | 0.651 | 0.818 |
| GGCGTC | 0.761 | 0.6 | 0.834 |
| GCGCAG | 0.764 | 0.68 | 0.712 |
| GACGGT | 0.411 | 0.331 | 0.453 |
| GCAAGA | 0.768 | 0.727 | 0.774 |
| CGGGCC | 0.743 | 0.57 | 0.692 |
| TACCGT | 0.644 | 0.67 | 0.713 |
| ATAGAG | 0.816 | 0.933 | 0.848 |
| ATCGGG | 0.443 | 0.538 | 0.432 |
| GCGCGG | 0.831 | 0.638 | 0.766 |
| TTGTCG | 0.806 | 0.758 | 0.91 |
| AGACGT | 0.466 | 0.405 | 0.441 |
| CCTAGT | 0.843 | 0.859 | 0.99 |
| ATAGGA | 0.777 | 0.838 | 0.849 |
| GCCAGT | 0.305 | 0.25 | 0.281 |
| GCCAGC | 0.788 | 0.637 | 0.654 |
| GTCGCT | 0.758 | 0.551 | 0.784 |
| GTAAGA | 0.765 | 0.96 | 0.783 |

| Sequence | binding signal (FEV) | binding signal (CRX) | binding signal (ELF5) |
| --- | --- | --- | --- |
| GTCGTA | 0.588 | 0.497 | 0.635 |
| GAGGAG | 0.197 | 0.163 | 0.21 |
| GGAGAC | 0.146 | 0.119 | 0.143 |
| GCCGAG | 0.633 | 0.558 | 0.572 |
| GGTCCG | 0.831 | 0.506 | 0.747 |
| GGGGGT | 0.524 | 0.408 | 0.498 |
| AACAGT | 0.614 | 0.598 | 0.635 |
| GGGGTG | 0.62 | 0.476 | 0.607 |
| TAGGAG | 0.374 | 0.453 | 0.382 |
| GTCGTT | 0.698 | 0.554 | 0.741 |
| CCATGA | 0.832 | 0.804 | 0.83 |
| GTGCAA | 0.991 | 0.693 | 0.882 |
| CGAGCC | 0.857 | 0.701 | 0.799 |
| GACTAA | 0.886 | 1.44 | 0.885 |
| AGCCAG | 0.472 | 0.472 | 0.439 |
| GTGACG | 0.71 | 0.532 | 0.696 |
| CAGTCA | 0.478 | 0.39 | 0.505 |
| CGGGCG | 0.46 | 0.307 | 0.376 |
| CACAGT | 0.719 | 0.544 | 0.676 |
| TGAGTG | 0.425 | 0.4 | 0.409 |
| GAGATA | 0.601 | 0.793 | 0.615 |
| TCAGTG | 0.765 | 0.813 | 0.681 |
| AGTCAG | 0.504 | 0.397 | 0.501 |
| GAGACT | 0.4 | 0.441 | 0.386 |

| Sequence | binding signal (FEV) | binding signal (CRX) | binding signal (ELF5) |
| --- | --- | --- | --- |
| GAGCCA | 0.595 | 0.465 | 0.577 |
| CGTTGA | 0.814 | 0.665 | 0.762 |
| AGGCGG | 0.226 | 0.205 | 0.255 |
| GGAGCG | 0.359 | 0.298 | 0.373 |
| ACACGT | 0.779 | 0.663 | 0.752 |
| GCCCAG | 0.757 | 0.629 | 0.665 |
| GGTAGA | 0.648 | 0.58 | 0.659 |
| CAGCCG | 0.717 | 0.535 | 0.635 |
| CGGTGG | 0.639 | 0.486 | 0.637 |
| CCATGT | 0.81 | 0.642 | 0.727 |
| GCAAGG | 0.806 | 0.661 | 0.787 |
| AGTCAA | 0.601 | 0.536 | 0.609 |
| GGCACA | 0.83 | 0.59 | 0.761 |
| GCATAT | 0.942 | 0.768 | 0.905 |
| GGGTTG | 0.817 | 0.575 | 0.804 |
| GTCATG | 0.738 | 0.593 | 0.798 |
| GAGGCA | 0.461 | 0.363 | 0.43 |
| AGGTCG | 0.5 | 0.384 | 0.531 |
| TCAGGG | 0.793 | 0.892 | 0.839 |
| CGGGTT | 0.847 | 0.759 | 1.02 |
| AGATTG | 0.78 | 1.06 | 0.713 |
| GCTGTG | 0.638 | 0.555 | 0.555 |
| GGGGGA | 0.581 | 0.579 | 0.619 |
| GCGTAC | 0.904 | 0.67 | 0.888 |
